This note sets out measurements from paper PMC12674617.

The chains behind the UniProt entries cited, without tags or fusion partners. Where a name states a change or a piece, a line headed by the entry shows the natural chain unless it says otherwise.
UniProt Q8TD16: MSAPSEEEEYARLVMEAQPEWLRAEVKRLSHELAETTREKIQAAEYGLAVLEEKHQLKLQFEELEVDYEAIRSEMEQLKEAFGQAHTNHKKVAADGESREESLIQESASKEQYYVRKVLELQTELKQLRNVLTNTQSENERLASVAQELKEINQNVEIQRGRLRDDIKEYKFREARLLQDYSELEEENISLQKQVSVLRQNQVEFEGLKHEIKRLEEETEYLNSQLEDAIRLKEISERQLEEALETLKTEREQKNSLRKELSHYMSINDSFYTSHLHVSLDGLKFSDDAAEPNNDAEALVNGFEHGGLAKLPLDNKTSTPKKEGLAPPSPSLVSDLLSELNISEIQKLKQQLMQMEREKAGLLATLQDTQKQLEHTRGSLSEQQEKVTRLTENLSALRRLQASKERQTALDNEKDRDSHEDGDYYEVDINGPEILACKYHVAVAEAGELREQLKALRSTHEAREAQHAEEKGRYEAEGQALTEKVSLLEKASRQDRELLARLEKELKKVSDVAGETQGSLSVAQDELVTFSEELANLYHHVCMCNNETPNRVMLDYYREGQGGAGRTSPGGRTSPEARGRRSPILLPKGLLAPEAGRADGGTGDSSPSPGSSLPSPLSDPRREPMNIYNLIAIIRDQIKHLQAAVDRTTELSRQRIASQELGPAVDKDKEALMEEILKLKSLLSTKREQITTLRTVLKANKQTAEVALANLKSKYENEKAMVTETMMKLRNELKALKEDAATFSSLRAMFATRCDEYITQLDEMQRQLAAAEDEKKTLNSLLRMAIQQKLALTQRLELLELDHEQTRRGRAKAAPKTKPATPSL
UniProt Q1MSJ5: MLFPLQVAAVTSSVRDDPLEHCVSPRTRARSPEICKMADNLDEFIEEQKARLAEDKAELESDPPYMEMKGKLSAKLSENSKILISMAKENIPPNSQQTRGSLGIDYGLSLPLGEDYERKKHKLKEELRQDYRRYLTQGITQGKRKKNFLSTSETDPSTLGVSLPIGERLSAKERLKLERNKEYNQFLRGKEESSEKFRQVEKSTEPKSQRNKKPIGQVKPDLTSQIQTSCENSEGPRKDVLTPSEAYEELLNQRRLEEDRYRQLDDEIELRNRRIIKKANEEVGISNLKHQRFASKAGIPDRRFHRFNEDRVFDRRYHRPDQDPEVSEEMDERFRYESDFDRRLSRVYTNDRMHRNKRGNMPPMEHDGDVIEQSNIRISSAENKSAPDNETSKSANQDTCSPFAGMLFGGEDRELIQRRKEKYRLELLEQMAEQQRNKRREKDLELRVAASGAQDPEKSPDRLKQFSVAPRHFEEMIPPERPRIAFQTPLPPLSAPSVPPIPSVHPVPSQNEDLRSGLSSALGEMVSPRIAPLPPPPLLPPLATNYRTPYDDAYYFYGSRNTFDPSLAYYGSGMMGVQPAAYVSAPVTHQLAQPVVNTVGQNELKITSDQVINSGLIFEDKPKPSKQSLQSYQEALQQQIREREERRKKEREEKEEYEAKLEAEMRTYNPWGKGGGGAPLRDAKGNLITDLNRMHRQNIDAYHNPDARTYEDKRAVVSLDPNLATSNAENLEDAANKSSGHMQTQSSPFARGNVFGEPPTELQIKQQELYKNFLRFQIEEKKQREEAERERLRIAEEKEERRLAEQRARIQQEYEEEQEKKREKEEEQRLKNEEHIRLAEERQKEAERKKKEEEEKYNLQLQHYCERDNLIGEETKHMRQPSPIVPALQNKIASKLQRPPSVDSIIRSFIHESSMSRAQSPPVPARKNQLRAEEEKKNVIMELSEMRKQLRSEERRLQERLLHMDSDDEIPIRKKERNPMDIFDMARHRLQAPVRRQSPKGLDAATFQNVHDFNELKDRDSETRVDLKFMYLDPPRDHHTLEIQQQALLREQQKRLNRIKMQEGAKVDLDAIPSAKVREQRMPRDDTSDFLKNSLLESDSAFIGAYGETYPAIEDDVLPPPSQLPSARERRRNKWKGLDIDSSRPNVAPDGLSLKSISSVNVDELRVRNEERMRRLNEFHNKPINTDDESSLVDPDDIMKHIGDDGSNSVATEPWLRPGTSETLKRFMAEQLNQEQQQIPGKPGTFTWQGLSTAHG
UniProt P53350: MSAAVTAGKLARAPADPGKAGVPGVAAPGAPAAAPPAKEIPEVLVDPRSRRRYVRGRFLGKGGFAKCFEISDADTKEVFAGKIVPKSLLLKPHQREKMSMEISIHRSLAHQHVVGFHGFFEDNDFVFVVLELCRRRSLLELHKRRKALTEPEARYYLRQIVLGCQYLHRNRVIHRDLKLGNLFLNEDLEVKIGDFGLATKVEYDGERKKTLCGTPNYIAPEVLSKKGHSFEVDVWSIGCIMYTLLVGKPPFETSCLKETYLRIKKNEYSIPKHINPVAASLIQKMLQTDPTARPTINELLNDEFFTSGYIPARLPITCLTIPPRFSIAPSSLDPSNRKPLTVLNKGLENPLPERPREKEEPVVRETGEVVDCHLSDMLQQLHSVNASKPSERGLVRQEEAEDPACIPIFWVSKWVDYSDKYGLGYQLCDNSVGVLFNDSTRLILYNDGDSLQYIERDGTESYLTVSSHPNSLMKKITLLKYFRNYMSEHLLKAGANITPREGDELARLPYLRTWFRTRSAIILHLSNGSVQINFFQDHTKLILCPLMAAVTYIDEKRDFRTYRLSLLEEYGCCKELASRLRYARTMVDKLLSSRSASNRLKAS
UniProt P33176: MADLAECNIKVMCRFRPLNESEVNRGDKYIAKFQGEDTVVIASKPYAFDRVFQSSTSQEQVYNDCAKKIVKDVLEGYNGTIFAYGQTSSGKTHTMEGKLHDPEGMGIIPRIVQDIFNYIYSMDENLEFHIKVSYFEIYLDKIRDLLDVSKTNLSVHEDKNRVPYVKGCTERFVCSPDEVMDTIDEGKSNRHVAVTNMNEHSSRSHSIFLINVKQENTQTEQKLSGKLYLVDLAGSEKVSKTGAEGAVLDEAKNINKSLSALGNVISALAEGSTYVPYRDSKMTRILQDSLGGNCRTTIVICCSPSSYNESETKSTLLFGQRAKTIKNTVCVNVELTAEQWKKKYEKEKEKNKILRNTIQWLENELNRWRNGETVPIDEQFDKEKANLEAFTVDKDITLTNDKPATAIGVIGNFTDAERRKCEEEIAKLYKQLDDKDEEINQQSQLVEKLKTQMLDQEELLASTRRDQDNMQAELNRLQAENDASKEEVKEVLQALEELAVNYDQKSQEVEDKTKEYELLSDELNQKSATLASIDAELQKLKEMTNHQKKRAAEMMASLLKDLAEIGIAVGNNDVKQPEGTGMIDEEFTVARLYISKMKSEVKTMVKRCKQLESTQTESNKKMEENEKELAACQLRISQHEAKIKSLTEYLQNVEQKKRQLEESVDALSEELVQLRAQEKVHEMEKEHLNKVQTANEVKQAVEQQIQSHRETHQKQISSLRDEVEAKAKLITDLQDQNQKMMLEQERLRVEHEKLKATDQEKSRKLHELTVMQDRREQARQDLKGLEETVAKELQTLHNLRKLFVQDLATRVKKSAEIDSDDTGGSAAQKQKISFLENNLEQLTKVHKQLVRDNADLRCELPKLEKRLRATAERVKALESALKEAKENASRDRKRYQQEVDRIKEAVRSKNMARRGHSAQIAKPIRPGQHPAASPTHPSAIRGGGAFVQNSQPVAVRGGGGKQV

Experiment [1] deals with BICD2_N188T-mTrbo (human) (UniProt Q8TD16). Nature of the experiment: proximity labelling; mini-TurboID fusions in HEK Flp-In T-REx 293 cells, Tet 1 µg/ml 24 hr, biotin 500 µM 40 min; lysate in RIPA buffer, 1 mg protein, streptavidin agarose beads overnight at 4 °C, four RIPA washes, western blot; also in cells treated with siRNA to BICD2, VPS41 or RANBP2.
Experiment [2] concerns the target BICD2_R694C-mTrbo (human) (UniProt Q8TD16). Described as above.
The target in experiment [3] is BICD2_R747C-mTrbo (human) (UniProt Q8TD16). The description is as above.
Experiment [4] addresses BICD2_N188T-mTrbo (human) (UniProt Q8TD16). In words: proximity labelling; mini-TurboID fusions in HEK Flp-In T-REx 293 cells, biotin labelling; 5 mg lysate protein, streptavidin magnetic beads overnight at 4 °C, washes with RIPA, high-salt RIPA (1 M NaCl) and PBS; mass spectrometry, triplicate; hits at least twofold against RFP-mTrbo (or mutant against wild type) with p value 0.05.

Experiment [5] has as its target BICD2_R694C-mTrbo (human) (UniProt Q8TD16). The experiment is described as above.
Experiment [6] addresses BICD2_R747C-mTrbo (human) (UniProt Q8TD16). The description is as above.
Experiment [7] concerns the target full-length BICD2 tagged on the C-terminus with mini-TurboID (BICD2-mTrbo) (human) (UniProt Q8TD16). The experiment is described as above.
For experiment [8] the target is unchanged. In words: proximity labelling; mini-TurboID fusions in HEK Flp-In T-REx 293 cells, Tet 1 µg/ml 24 hr, biotin 500 µM 40 min; lysate in RIPA buffer, 1 mg protein, streptavidin agarose beads overnight at 4 °C, four RIPA washes, western blot; also in cells treated with siRNA to BICD2, VPS41 or RANBP2. Background: Immunoblotting shows a protein as a band on a membrane.

These are yes or no findings as the source states them, for the method shown. In cells and extracts the contact can be indirect. Here binding means that the protein was enriched with, or labelled near, the bait; the list need not be complete.

Take CSPP1 (from UniProt Q1MSJ5 1-1256): the binding entry in experiment [1], in experiment [2], in experiment [3], in experiment [4], in experiment [5] and in experiment [6] was “binds” throughout.
Consider PLK1 (from UniProt P53350 1-603), for which the binding result in experiment [7] was “binds”.
Turning to KIF5B (from UniProt P33176 1-963), the binding result in experiment [1], in experiment [2] and in experiment [8] was “binds weakly” each time.
